These are yes or no findings as the source states them, for the method shown. For part of these data: In cells and extracts the contact can be indirect. Some binding calls cover weakened binding; strength is not graded here. For part of these data: Where a sequence is shown, tags or fusion partners need not be part of it.
Assays:
[1] = biological target: T1, DORN1-BK (DORN1 in pGBKT7) (Arabidopsis) (UniProt Q9LSR8); assay: two-hybrid; DORN1 in pGBKT7 as bait, RBOHF(1-387aa) in pGADT7; yeast AH109; growth on SD/-Ade/-His/-Leu/-Trp and blue colonies with X-alpha-gal; 12.5 mM 3-AT to inhibit self-activation of the bait
T1 sequence: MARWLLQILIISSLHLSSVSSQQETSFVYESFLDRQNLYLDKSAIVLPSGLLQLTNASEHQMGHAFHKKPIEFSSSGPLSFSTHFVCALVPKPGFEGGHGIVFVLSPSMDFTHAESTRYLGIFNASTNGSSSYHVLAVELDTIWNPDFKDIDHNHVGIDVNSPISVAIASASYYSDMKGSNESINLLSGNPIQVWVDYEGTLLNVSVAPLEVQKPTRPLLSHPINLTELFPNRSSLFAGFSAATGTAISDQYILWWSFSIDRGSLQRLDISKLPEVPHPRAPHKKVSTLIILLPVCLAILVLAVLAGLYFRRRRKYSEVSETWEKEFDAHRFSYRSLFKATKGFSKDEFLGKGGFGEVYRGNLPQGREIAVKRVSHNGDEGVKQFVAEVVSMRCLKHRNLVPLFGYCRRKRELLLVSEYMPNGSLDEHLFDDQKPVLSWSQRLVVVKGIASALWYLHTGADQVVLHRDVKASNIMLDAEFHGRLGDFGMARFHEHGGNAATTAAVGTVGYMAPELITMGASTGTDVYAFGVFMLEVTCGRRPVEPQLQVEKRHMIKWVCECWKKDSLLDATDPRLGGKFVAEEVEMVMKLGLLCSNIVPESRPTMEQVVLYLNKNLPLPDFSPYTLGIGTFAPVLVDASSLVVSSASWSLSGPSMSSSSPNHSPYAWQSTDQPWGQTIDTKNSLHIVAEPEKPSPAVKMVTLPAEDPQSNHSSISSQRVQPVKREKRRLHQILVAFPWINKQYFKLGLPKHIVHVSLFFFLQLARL

By UniProt entry, the sequences of proteins in these tests, tags left out. Where a name states a change or a piece, a line headed by the entry shows the natural chain unless it says otherwise.
UniProt O48538: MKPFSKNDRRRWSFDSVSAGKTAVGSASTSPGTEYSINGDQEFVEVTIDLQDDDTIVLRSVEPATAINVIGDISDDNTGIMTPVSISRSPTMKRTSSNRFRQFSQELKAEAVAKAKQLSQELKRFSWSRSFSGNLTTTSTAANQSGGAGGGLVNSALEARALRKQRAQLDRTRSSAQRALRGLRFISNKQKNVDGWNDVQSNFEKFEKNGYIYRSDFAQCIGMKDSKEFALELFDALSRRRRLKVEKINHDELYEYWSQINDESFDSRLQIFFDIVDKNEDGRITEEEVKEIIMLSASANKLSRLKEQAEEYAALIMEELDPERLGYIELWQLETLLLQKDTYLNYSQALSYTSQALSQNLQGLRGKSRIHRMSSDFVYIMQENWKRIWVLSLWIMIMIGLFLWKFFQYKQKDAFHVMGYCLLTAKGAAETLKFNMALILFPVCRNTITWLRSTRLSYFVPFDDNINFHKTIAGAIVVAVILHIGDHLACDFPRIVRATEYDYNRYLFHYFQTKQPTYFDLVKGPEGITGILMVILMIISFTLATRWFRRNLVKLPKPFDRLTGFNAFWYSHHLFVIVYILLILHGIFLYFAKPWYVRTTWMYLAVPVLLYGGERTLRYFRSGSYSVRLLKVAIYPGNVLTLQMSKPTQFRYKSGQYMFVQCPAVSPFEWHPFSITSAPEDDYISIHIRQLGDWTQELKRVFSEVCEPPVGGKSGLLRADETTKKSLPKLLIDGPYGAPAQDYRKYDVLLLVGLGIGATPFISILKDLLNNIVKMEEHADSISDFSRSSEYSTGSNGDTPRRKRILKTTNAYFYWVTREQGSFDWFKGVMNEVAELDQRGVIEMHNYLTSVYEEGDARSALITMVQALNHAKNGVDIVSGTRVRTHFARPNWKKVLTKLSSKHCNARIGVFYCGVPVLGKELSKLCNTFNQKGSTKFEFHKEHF

DORN1-Cluc (Arabidopsis) = biological target: T2, DORN1-Cluc (Arabidopsis) (UniProt Q9LSR8); assay: split reporter; firefly luciferase complementation imaging (LCI): DORN1-Cluc and RBOHF-Nluc in Nicotiana leaves by Agrobacterium GV3101; leaf in four quadrants with Cluc/Nluc controls
T2 sequence: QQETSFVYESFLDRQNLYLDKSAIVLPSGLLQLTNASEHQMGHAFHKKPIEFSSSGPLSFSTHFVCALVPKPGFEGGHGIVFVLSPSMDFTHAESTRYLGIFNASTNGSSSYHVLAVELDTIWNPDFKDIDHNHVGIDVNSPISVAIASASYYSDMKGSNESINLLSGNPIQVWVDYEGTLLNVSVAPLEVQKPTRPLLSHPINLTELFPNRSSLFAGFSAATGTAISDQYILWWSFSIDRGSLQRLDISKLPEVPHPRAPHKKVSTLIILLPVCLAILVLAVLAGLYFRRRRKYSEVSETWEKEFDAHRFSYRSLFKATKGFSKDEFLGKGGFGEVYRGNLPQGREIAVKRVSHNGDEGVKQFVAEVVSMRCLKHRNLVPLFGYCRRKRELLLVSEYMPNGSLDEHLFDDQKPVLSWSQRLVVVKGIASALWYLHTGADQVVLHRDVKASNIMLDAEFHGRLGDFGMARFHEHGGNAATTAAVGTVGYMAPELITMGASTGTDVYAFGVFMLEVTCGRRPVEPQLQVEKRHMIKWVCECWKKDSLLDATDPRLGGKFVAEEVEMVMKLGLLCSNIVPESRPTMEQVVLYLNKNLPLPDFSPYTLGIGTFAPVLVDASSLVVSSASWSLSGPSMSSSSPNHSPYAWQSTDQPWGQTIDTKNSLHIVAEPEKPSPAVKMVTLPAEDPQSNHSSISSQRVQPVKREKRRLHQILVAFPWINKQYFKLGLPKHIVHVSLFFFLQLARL

[2] = biological target: T3, DORN1-YNE (DORN1 in pSPYNE) (Arabidopsis) (UniProt Q9LSR8); assay: split reporter; BiFC: DORN1-YNE and RBOHF-YCE in tobacco leaves by Agrobacterium; YFP fluorescence by confocal microscopy
T3 sequence: T2 sequence

In the case of “RBOHF(1-387aa)-AD (RBOHF residues 1-387 in pGADT7) (from UniProt O48538 1-387) (domain or fragment)”, the binding [1] is reported as “binds”.

With RBOHF-Nluc (from UniProt O48538 1-944) the binding (DORN1-Cluc (Arabidopsis)) was “binds”.

For “RBOHF-YCE (RBOHF in pSPYCE) (from UniProt O48538 1-944)”, the binding [2] was “binds”.

Source: paper PMC9409277, “Ethyl Vinyl Ketone Activates K^+ Efflux to Regulate Stomatal Closure by MRP4-Dependent eATP Accumulation Working Upstream of H2O2 Burst in Arabidopsis” (International Journal of Molecular Sciences, 2022)
